{"source": "PubChem BioAssay (NCATS)", "note": "The shares of active, inactive and inconclusive entries below differ from those in the screen. Where the call is inconclusive, the potency comes from a doubtful curve fit. Calls of active or inactive are those of the source. Calls come from the whole dose curve; as a rule, active = well fitted cell-killing curve with a large enough effect; inconclusive = small, poorly fitted or top-dose-only effect, or effect the other way; inactive = no such curve, though single readings can be large or run the other way. Potency is the fitted concentration of half-maximal effect."}
{"assay": "Quantitative High-Throughput drug screen in 47 multiple myeloma cell lines against the NCATS MIPE library collection: L363_DSMZ cell viability assay (AID 1918984); note: nearly all actives have a fitted effect of over 40% in size", "conditions": "L363 myeloma viability, CellTiter-Glo ATP luminescence, 48 h; viability (% of control): at 45.8 µM (top of the series)", "from_the_text": "PI: Beverly A. Mock Ph.D.\nLaboratory of Cancer Biology and Genetics,\nCenter for Cancer Research, National Cancer Institute,\nNational Institute of Health, Bethesda, Maryland\nDrug resistance and disease progression are common in multiple myeloma (MM) patients, underscoring the need for new therapeutic combinations. […] We hypothesized that effective combinations would reduce MYC expression and enhance p16 activity. […] These preclinical data identify potentially useful drug combinations for evaluation in drug-resistant MM and reveal potential mechanisms of combined drug sensitivity.\nDescribed herein is the primary MIPE qHTS used to cherrypick compounds. Validated compounds were then further tested for potential synergistic activiy.\n[1] Peat TJ, Gaikwad SM, Dubois W, Gyabaah-Kessie N, Zhang S, Gorjifard S, Phyo Z, Andres M, Hughitt VK, Simpson RM, Miller MA, Girvin AT, Taylor A, Williams D, D'Antonio N, Zhang Y, Rajagopalan A, Flietner E, Wilson K, Zhang X, Shinn P, Klumpp-Thomas C, McKnight C, Itkin Z, Chen L, Kazandijian D, Zhang J, Michalowski AM, Simmons JK, Keats J, Thomas CJ, Mock BA. Drug combinations identified by high-throughput screening promote cell cycle transition and upregulate Smad pathways in myeloma. Cancer Lett. 2023 Aug 1;568:216284. doi: 10.1016/j.canlet.2023.216284. Epub 2023 Jun 24. PMID: 37356470; PMCID: PMC10408729.\nSEQUENCE No. (e.g., 1, 2, 3, etc.); […] (e.g., Cells, Incubation, Reagent, etc.); VALUE and DESCRIPTION.\n1; Cells; 5 uL; white, solid bottom 1536-well Greiner assay plate.\n2; Compounds; 23 nL; Kalypsis pin tool (Wako USA) equipped with a 1536-well pin head to transfer to the assay plates.\n3; Incubation; 48 hours; 37C incubation.\n4; Reagent;5uL; CellTiter Glo (Promega).\n5; Detector; 425V; Luminescence; Viewlux PerkinElmer.\nNOTES (numbers refer to Sequence numbers above)\n1. The cell-based screening methods employed in this study were like those previously published. Briefly, the corresponding myeloma cell lines were screened in 1,536-well plates with 500 cells, 5-uL per well for inhibition of cell viability (assessed by measuring ATP levels with CellTiterGlo).\n2. NCATS MIPE 4.0 library of approved and investigational drugs were added using the Kalypsis pin tool. Wells treated with DMSO only for 100% viability and media only for 0% viability were used as controls.\n3. The assay plates were covered and incubated for 48 hours in a 37C, 5% CO2 incubator with controlled humidity.\n4. After 48 hours, CellTilter-GloTM luminescent substrate mix (Promega) reagent was added to the assay plate and plates we incubated for 5 min at room temperature.\n5. Signal was measured as median relative luminescence units on a ViewLux (PerkinElmer) multiplate reader.\n[1] Heske CM, Davis MI, Baumgart JT, Wilson K, Gormally MV, Chen L, Zhang X, Ceribelli M, Duveau DY, Guha R, Ferrer M, Arnaldez FI, Ji J, Tran HL, Zhang Y, Mendoza A, Helman LJ, Thomas CJ. Matrix Screen Identifies Synergistic Combination of PARP Inhibitors and Nicotinamide Phosphoribosyltransferase (NAMPT) Inhibitors in Ewing Sarcoma. Clin Cancer Res. 2017 Dec 1;23(23):7301-7311. doi: 10.1158/1078-0432.CCR-17-1121. Epub 2017 Sep 12. PMID: 28899971; PMCID: PMC6636827."}
{"compound": "CC1(C)O[C@@H]2C[C@H]3[C@@H]4CCC5=CC(=O)C=C[C@]5(C)[C@@H]4[C@@H](O)C[C@]3(C)[C@]2(C(=O)CO)O1", "Potency": "inconclusive: 0.332 µM [cytotoxic, full curve]"}
{"compound": "Nc1nc2c(ncn2COCCO)c(=O)[nH]1", "viability (% of control)": "inactive: 75.9%"}
{"compound": "CCCCCCCCCCCCCCCC(=O)OC[C@@H](NC(=O)C(Cl)Cl)[C@H](O)c1ccc([N+](=O)[O-])cc1", "viability (% of control)": "inactive: 95.7%"}
{"compound": "COc1cc(C(=O)NC2CCN(C)CC2)ccc1Nc1ncc2c(n1)N(C1CCCC1)CCC(=O)N2C(C)C", "Potency": "active: 16.6 µM"}
{"compound": "NC(=O)OCC(COC(N)=O)c1ccccc1", "viability (% of control)": "inactive: 97.6%"}
{"compound": "CC(C)(C)c1cc(C(=O)O)c(NC(=O)Nc2ccc3[nH]ncc3c2)s1", "Potency": "inconclusive: 1.32 µM [cytotoxic, partial curve, poor fit]"}
{"compound": "CC(C)[C@H](N)C(=O)OCCOCn1cnc2c(=O)[nH]c(N)nc21", "Potency": "inconclusive: 33.2 µM [cytotoxic, single point]"}
{"compound": "C[C@H]1c2cccc(O)c2C(O)=C2C(=O)[C@]3(O)C(O)=C(C(N)=O)C(=O)[C@@H](N(C)C)[C@@H]3[C@@H](O)[C@@H]21", "Potency": "inconclusive: 37.2 µM [cytotoxic, single point]"}
{"compound": "CC(=O)OC1C(C)OC(Oc2c(-c3ccc(O)cc3)oc3cc(O)cc(O)c3c2=O)C(O)C1OC(C)=O", "note": "(stereo not given)", "Potency": "inconclusive: 11.8 µM [cytotoxic, single point]"}
{"compound": "CC1(C)C(=O)N(CCN2CCC(C(=O)c3ccc(F)cc3)CC2)c2ccccc21", "Potency": "active: 13.2 µM"}
{"compound": "CC(COc1ccccc1)N(CCCl)Cc1ccccc1", "note": "(stereo not given)", "Potency": "inconclusive: 26.4 µM [cytotoxic, single point]"}
{"compound": "Cc1ccc(Nc2cc(-c3cccc(N4C(=O)c5ccccc5C4=O)c3)ncn2)cc1NS(C)(=O)=O", "Potency": "active: 18.7 µM"}
{"compound": "Nc1ncnc2ccccc12", "Potency": "inconclusive: 0.132 µM [rising, full curve, poor fit]"}
{"compound": "O=C(O)C1=CO[C@@H](O[C@@H]2O[C@H](CO)[C@H](O)[C@H](O)[C@H]2O)[C@@H]2C(CO)=CC[C@H]12", "viability (% of control)": "inactive: 108%"}
{"compound": "CC(C)C(C)C=CC(C)C1CCC2C3=CC=C4CC(O)CCC4(C)C3CCC21C", "note": "(stereo not given)", "viability (% of control)": "inactive: 104%"}
{"compound": "NCC1CCC(C(=O)O)CC1", "note": "(stereo not given)", "viability (% of control)": "inactive: 85.5%"}
{"compound": "O=c1cc(-c2cccc3c2Sc2ccccc2S3)oc(N2CCOCC2)c1", "Potency": "inconclusive: 29.6 µM [cytotoxic, single point]"}
{"compound": "CC1(C)Cc2c(-c3ccccc3)c(-c3ccc(Cl)cc3)c(CC(=O)O)n2C1", "Potency": "inconclusive: 0.118 µM [cytotoxic, full curve, poor fit]"}
{"compound": "CC(C)NCC(O)c1ccc(NS(C)(=O)=O)cc1", "note": "(stereo not given)", "Potency": "inconclusive: 0.0019 µM [cytotoxic, full curve, poor fit]"}
{"compound": "N#CC(c1ccnc(NCCc2cccnc2)n1)c1nc2ccccc2s1", "note": "(stereo not given)", "Potency": "active: 4.69 µM"}
{"compound": "C[N+]1(C)[C@@H]2CC(OC(=O)[C@H](CO)c3ccccc3)C[C@H]1[C@H]1O[C@@H]12", "note": "(stereo not given in full)", "viability (% of control)": "inactive: 110%"}
{"compound": "NC(=O)c1ccc(N(C(N)=O)c2c(F)cccc2F)nc1-c1ccc(F)cc1F", "Potency": "inconclusive: 11.8 µM [cytotoxic, partial curve, poor fit]"}
{"compound": "C[C@@H](NCCCc1cccc(C(F)(F)F)c1)c1cccc2ccccc12", "viability (% of control)": "inactive: 139%"}
{"compound": "CC[C@H]1OC(=O)[C@H](C)C(=O)[C@H](C)[C@@H](O[C@H]2O[C@H](C)C[C@H](N(C)C)[C@@H]2O)[C@](C)(OC)C[C@@H](C)C(=O)[C@H](C)[C@H]2N(CCCCn3cnc(-c4cccnc4)c3)C(=O)O[C@]12C", "Potency": "inconclusive: 4.18 µM [cytotoxic, partial curve, poor fit]"}
{"compound": "NC(=O)c1cnc(-c2ccc(C3(N)CCC3)cc2)c(-c2ccccc2)c1", "Potency": "inconclusive: 11.8 µM [cytotoxic, partial curve, poor fit]"}
{"compound": "CCOC(=O)C=C[C@H](C[C@@H]1CCNC1=O)NC(=O)[C@@H](CC(=O)[C@@H](NC(=O)c1cc(C)on1)C(C)C)Cc1ccc(F)cc1", "Potency": "inconclusive: 0.0148 µM [rising, full curve, poor fit]"}
{"compound": "C[C@@]1(C(=O)Nc2ccc(F)nc2)CCCN1c1nc(Nc2cc(C3CC3)[nH]n2)c2cccn2n1", "Potency": "inconclusive: 0.0118 µM [cytotoxic, full curve, poor fit]"}
{"compound": "c1ccc2c(-c3cnn4cc(-c5ccc(N6CCNCC6)cc5)cnc34)ccnc2c1", "Potency": "inconclusive: 1.05 µM [cytotoxic, full curve, poor fit]"}
{"compound": "Cc1cn2c(-c3cn[nH]c3)cnc2c(Nc2ccc(C(=O)N3CCNCC3)cc2F)n1", "Potency": "inconclusive: 2.35 µM [cytotoxic, partial curve, poor fit]"}
{"compound": "COCCCOc1cc(C[C@@H](C[C@H](N)[C@@H](O)C[C@H](C(=O)NCC(C)(C)C(N)=O)C(C)C)C(C)C)ccc1OC", "viability (% of control)": "inactive: 104%"}
{"compound": "NC(=O)c1ccc2[nH]ccc2c1", "Potency": "inconclusive: 0.0047 µM [cytotoxic, full curve, poor fit]"}
{"compound": "CC1(C)CCC(CN2CCN(c3ccc(C(=O)NS(=O)(=O)c4ccc(NCC5CCOCC5)c([N+](=O)[O-])c4)c(Oc4cnc5[nH]ccc5c4)c3)CC2)=C(c2ccc(Cl)cc2)C1", "Potency": "inconclusive: 1.05 µM [cytotoxic, partial curve, poor fit]"}
{"compound": "O=C(O)C1=NC(C(=O)O)CC(C=CN2c3cc(O)c(OC4OC(CO)C(O)C(O)C4O)cc3CC2C(=O)O)=C1", "note": "(stereo not given)", "viability (% of control)": "inactive: 115%"}
{"compound": "Cc1ccc(-n2[nH]c(C)c(N=Nc3cccc(-c4cccc(C(=O)O)c4)c3O)c2=O)cc1C", "viability (% of control)": "inactive: 108%"}
{"compound": "CCCn1c(=O)c2[nH]c(-c3cnn(Cc4cccc(C(F)(F)F)c4)c3)nc2n(CC)c1=O", "Potency": "inconclusive: 1.18 µM [cytotoxic, full curve, poor fit]"}
{"compound": "Cc1ccc([C@@H]2O[C@H](CO)[C@@H](O)[C@H](O)[C@@H]2O)cc1Cc1ccc(-c2ccc(F)cc2)s1", "Potency": "inconclusive: 16.6 µM [cytotoxic, partial curve, poor fit]"}
{"compound": "CC(C)(C#N)c1cc(Cn2cncn2)cc(C(C)(C)C#N)c1", "viability (% of control)": "inactive: 98.6%"}
{"compound": "c1ccc2c(Oc3nc(Nc4ccc(N5CCOCC5)cc4)c4ncn(C5CCCCC5)c4n3)cccc2c1", "Potency": "inconclusive: 18.7 µM [cytotoxic, partial curve, poor fit]"}
{"compound": "CC(C)(C)[N+]([O-])=Cc1ccc(S(=O)(=O)O)cc1S(=O)(=O)O", "viability (% of control)": "inactive: 108%"}
{"compound": "CC1(C)CCC[C@@]2(C)[C@@H]1CC[C@@]1(C)OC(=O)C[C@H]21", "Potency": "inconclusive: 16.6 µM [cytotoxic, partial curve, poor fit]"}
